The target in the assay is p75NTR (low affinity neurotrophin receptor, recombinant full-length). In words: AP-ligand binding to transfected COS-7 cells.

No constants are given. Whether binding was seen depends on the method and setting. Sequences can lack the tags named with a protein.

B1: AP-sNgR^C-term (LRRCT domain together with the unique domain of NgR, residues 261-445, AP fusion) (receptor)
chain: PWVCDCRARPLWAWLQKFRGSSSEVPCNLPQRLAGRDLKRLAASDLEGCAVASGPFRPFQTNQLTDEELLGLPKCCQPDAADKASVLEPGRPASAGNALKGRVPPGDTPPGNGSGPRHINDSPFGTLPGSAEPPLTALRPGGSEPPGLPTTGPRRRPGCSRKNRTRSHCRLGQAGSGSSGTGDAE
notes: Soluble, made in HEK293T cells; also called AP-sNgRCTu [Pro261-Glu445]; AP-NgR^C-term; not shown: alkaline phosphatase (AP) tag
In the case of B1, the binding result was “no binding”.

Values taken from patent publication US20070032406A1 (UNIVERSITY OF ROCHESTER, published 2007).
